According to PMC11898274, “Interleukin-34 orchestrates bone formation through its binding to bone morphogenic proteins” (Theranostics, 2025):
Results are given in words; binding and its absence hold for the method and conditions named. Some results given as binding are weak or reduced against the parent protein; the word gives no strength.

Sequences of proteins named here, by UniProt entry; tags and fusion partners are left off.
UniProt P27037: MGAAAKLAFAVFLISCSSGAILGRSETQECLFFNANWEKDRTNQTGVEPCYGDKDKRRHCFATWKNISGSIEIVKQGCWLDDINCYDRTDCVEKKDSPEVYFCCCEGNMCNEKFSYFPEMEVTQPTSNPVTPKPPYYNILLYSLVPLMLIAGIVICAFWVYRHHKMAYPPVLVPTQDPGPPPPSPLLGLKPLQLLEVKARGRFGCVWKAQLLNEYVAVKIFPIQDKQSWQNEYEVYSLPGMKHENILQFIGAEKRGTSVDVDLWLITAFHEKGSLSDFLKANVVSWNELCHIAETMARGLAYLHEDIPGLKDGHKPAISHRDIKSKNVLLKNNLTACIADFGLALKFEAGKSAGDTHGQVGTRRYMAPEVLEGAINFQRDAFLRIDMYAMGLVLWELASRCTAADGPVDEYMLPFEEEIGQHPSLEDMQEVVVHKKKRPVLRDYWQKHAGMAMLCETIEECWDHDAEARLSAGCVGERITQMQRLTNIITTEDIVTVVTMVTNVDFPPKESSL

Target: Activin RIIA receptor (ActRIIA) (human) (UniProt P27037)
Assay: SPR; receptors captured on immobilized anti-human Fc; IL34 injected (18.75, 37.5, 75, 150, 300 nM); T200, 25 °C, PBS pH 7.4 with 0.05% P20; steady-state fitting model; both purified

B1: Recombinant human interleukin-34 (IL34) (ligand)
chain: NEPLEMWPLTQNEECTVTGFLRDKLQYRSRLQYMKHYFPINYKISVPYEGVFRIANVTRLQRAQVSERELRYLWVLVSLSATESVQDVLLEGHPSWKYLQEVETLLLNVQQGLTDVEVSPKVESVLSLLNAPGPNLKLVRPKALLDNCFRVMELLYCSCCKQSSVLNWQDCEVPSPQSCSPEPSLQYAATQLYPPPPWSPSSPPHSTGSVRPVRAQGEGLLP
binding: binds
